Article PMC7253433
No constants are given. Whether binding was seen depends on the method and setting. Binding seen in cells or lysates may run through a third protein. Some results given as binding are weak or reduced against the parent protein; the word gives no strength.

The chains behind the UniProt entries cited, without tags or fusion partners.
UniProt O00571: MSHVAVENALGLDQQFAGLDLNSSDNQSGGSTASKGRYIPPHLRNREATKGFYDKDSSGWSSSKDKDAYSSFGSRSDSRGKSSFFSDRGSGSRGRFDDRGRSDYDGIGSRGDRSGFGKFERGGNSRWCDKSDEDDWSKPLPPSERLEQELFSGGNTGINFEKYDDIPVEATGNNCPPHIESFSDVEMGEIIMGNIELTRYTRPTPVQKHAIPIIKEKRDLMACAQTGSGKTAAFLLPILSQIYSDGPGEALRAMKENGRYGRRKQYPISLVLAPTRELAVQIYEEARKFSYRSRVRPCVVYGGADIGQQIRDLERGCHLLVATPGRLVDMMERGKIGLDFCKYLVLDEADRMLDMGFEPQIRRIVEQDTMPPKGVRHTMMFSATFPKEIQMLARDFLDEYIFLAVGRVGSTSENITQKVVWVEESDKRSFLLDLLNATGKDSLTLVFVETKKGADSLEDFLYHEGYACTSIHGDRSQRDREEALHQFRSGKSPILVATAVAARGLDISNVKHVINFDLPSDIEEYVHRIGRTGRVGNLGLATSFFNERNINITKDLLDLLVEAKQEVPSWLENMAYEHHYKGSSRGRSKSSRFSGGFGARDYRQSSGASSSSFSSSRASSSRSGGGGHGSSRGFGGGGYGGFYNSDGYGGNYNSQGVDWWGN

Experiments:
[1] = target: T1, hnRNP F (human (endogenous in U87 and U251)) (UniProt P52597); experiment: co-IP; total extracts (TE) of U87 or U251 cells, endogenous proteins, in the presence of RNase and DNase; immunoprecipitation with hnRNP H/F or DHX36 antibody, western blot
T1 sequence: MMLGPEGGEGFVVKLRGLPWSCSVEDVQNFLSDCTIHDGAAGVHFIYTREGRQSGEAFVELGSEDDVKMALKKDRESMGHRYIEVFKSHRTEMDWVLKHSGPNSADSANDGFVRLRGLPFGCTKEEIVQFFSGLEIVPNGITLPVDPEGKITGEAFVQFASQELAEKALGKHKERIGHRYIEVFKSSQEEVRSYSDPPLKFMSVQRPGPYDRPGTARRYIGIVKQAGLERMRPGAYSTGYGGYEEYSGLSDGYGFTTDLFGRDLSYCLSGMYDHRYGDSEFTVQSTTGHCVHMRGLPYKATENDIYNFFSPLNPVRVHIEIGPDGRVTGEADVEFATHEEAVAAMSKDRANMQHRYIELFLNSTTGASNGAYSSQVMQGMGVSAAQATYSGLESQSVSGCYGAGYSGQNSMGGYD

[2] = target: T1, hnRNP F (human (endogenous in U87 and U251)); experiment: co-IP; cytoplasmic extracts (CE; cytosolic + microsomal fractions) of U87 or U251 cells, endogenous proteins, digested with Benzonase and DNase I; hnRNP H/F or DHX36 antibody on beads, 1 mg extract overnight at 4 °C, western blot

binding [1]: binds
binding [2]: binds weakly
Substance: DDX3X (from UniProt O00571 1-662) (enzyme)
